Measured values from US20240317806A1, “TOPICAL PEPTIDE FORMULATION FOR THE TREATMENT OF SEXUAL DYSFUNCTION” (priority 2023, published 2024).
Not every detail of the peptide structures is certain; ends, links or a residue may be inferred.

Tests used:
[1] = Physicochemical properties of PnPP-19 peptide (pI, pKa)
Text: Aspects of the disclosure relate to pharmaceutical compositions comprising a PnPP-19 peptide (e.g., a peptide comprising or consisting of the amino acid sequence set forth in SEQ ID NO: 1). PnPP-19 is a synthetic, non-toxic peptide composed of 19 amino acid residues originating from the PnTx2-6 toxin, which was isolated from the venom of the Brazilian armadeira spider (Phoneutria nigriventer). In some embodiments, the isolated peptide (e.g., PnPP-19) is presented as a freeze-dried white powder (e.g., a solid physical form). In some embodiments, PnPP-19 is an amphipathic peptide with about 26% cationic amino acid residues. In some embodiments, PnPP-19 is positively charged at pH 7.

[2] = Long-term stability analysis of FAPP20 (30° C. ± 2° C., RH 75%); format: physicochemical; conditions: T3 (3 months)
[3] = test system: murine penile corpus cavernosum; conditions: ex vivo; cited from earlier work

## Ac-GERRQYFWIAWYKLANSKK-NH2 [PnPP-19]
[1]
  pI: 10.68
[2]
  Content (HPLC): > 80%
[3]
  relaxation of isolated strips of murine penile corpus cavernosum: improved relaxation
